Measured values published in patent US20020076719A1 (ROCKEFELLER UNIVERSITY, published 2002).
Results are given in words; binding and its absence hold for the method and conditions named. For some of these results: Binding seen in cells or lysates may run through a third protein. Some results given as binding are weak or reduced against the parent protein; the word gives no strength.

Sequences of proteins named here, by UniProt entry; tags and fusion partners are left off. A change or cut given only in a name is not applied to a line headed by its entry.
UniProt Q15554: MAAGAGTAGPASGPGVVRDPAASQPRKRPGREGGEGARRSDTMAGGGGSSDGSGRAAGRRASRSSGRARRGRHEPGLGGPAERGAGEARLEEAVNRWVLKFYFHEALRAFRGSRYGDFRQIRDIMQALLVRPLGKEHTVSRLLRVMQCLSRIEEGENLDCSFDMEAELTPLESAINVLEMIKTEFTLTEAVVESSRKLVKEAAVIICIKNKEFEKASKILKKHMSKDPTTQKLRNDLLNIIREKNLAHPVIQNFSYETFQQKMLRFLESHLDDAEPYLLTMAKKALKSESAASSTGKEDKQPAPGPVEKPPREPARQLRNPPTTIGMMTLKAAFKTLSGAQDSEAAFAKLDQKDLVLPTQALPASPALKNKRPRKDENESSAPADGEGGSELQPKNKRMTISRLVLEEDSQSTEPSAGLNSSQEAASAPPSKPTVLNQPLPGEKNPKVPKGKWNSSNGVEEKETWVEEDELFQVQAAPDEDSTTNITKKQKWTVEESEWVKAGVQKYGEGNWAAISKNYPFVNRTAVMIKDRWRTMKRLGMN

Tests used:
untagged mTRF2 [1] = molecular target: T1, untagged mTRF2 (mouse, UniProt O35144 46-541, limits assumed); test: co-immunoprecipitation (FIG. 12B)
T1 construct: In vitro translated and 35S-methionine labelled; also called mouse TRF2
T1 sequence: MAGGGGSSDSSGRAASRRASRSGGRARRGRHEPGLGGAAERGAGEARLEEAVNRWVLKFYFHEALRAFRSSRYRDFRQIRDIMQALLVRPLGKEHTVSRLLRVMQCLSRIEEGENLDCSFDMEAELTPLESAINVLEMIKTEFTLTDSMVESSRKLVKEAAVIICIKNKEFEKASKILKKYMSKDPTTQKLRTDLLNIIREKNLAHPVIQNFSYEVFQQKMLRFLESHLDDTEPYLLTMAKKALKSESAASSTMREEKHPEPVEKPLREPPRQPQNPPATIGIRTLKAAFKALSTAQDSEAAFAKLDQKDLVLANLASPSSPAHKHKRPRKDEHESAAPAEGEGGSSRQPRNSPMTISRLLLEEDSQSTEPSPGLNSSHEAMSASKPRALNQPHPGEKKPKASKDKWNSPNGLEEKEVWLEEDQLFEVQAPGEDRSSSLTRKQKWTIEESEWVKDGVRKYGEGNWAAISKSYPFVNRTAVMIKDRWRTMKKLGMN

untagged mTRF2 [2] = molecular target: T1, untagged mTRF2; test: co-immunoprecipitation of in vitro translated 35S-labelled proteins with M2 anti-FLAG antibody
Description: FIG. 12: TRF2 interacts with TRF2 but not with TRF1. […] Values represent an average of three to nine independent transformants. FIG. 12B depicts in vitro translated ³⁵S-methionine labelled TRF1 and TRF2 proteins with or without an N-terminal FLAG tag (indicated above the lanes) were immunoprecipitated using the M2 anti-FLAG antibodies and analyzed by autoradiography.
Co-immunoprecipitation experiments. The human and mouse TRF1 constructs used were previously described [Chong et al., Science, 270:1663-1667 (1995); Broccoli et al., Hum. Mol. Genetics, 6:69-76 (1997); Bianchi et al., supra (1997)]. The FLAG-tagged mTRF2 and untagged mTRF2 were translated from cDNAs described above. ³⁵S-methionine labelled proteins [Chong et al., Science, 270:1663-1667 (1995); Broccoli et al., Hum. Mol. Genetics, 6:69-76 (1997); Bianchi et al., supra, (1997)] were immunoprecipitated using the M2 anti-FLAG antibody in buffer D (20 mM Hepes-KOH pH 7.9, 100 mM KCl, 20% glycerol, 0.2 mM EDTA, 0.2 mM EGTA, 0.1 % NP40, 0.1 % Triton-X-100, 0.5 mM DTT, 0.5 mM PMSF) followed by four washes in buffer D with detergents and two washes in buffer D without detergent. Pellets were suspended in SDS/PAGE loading buffer and resolved on a 9% SDS-polyacrylamide gel.

[3] = molecular target: hTRF2 dimerization domain (amino acid 45 to amino acid 246), LexA and GAD fusion proteins (human) (UniProt Q15554); test: yeast 2-hybrid (FIG. 12A)
[4] = molecular target: hTRF2 dimerization domain (amino acid 45 to amino acid 246), LexA and GAD fusion proteins (human) (UniProt Q15554); test: yeast 2-hybrid, LexA and GAD fusions of the dimerization domain

binding (untagged mTRF2 [1])	binding (untagged mTRF2 [2])	binding [3]	binding [4]	Substance
binds	binds			FLAG-tagged full length mTRF2 (from UniProt O35144 46-541)
		binds	binds	hTRF2 dimerization domain (amino acid 45 to amino acid 246), LexA and GAD fusion proteins (from UniProt Q15554 87-288)
